Assay results as given in US20220177558A1 (INSERM INSTITUT NATIONAL DE LA SANT ET DE LA RECHERCHE M …, published 2022).
No constants are given. Whether binding was seen depends on the method and setting. Some results given as binding are weak or reduced against the parent protein; the word gives no strength. Where no end group is shown, it is not given here.

Protein sequences, listed by entry. Tags and fused reporters are not part of them. Lines headed by an entry give the natural chain unless they say otherwise; changes in a name come on top. Chains listed by the source or under a name are the forms on record and can include a tag or linker.
AcMet11-Tau species in Alzheimer's disease brain (P10636, form named): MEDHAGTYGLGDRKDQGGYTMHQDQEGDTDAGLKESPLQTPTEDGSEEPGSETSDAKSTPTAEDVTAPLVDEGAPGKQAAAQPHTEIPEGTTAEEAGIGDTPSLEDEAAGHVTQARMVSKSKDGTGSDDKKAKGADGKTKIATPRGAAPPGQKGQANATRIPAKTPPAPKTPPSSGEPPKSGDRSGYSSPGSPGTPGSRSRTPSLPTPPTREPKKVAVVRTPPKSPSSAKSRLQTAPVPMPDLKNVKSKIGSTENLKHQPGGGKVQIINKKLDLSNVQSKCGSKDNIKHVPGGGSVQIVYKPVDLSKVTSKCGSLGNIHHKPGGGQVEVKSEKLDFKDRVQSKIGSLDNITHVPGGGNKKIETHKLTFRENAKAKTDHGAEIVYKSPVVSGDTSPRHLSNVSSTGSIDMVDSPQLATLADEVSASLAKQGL
AcMet11-Tau (Met11-Tau) protein expressed in cells (P10636, form named): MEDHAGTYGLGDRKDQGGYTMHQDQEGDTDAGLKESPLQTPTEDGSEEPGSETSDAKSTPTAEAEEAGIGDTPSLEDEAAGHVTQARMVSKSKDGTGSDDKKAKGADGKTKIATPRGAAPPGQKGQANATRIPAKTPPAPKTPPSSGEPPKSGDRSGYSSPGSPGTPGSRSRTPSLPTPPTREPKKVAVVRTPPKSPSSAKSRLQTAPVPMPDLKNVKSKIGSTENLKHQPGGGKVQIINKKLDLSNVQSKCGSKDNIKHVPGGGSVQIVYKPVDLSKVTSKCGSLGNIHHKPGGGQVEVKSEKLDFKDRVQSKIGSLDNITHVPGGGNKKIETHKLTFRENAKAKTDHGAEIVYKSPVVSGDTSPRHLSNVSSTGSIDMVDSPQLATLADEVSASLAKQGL

Key:
[1] = target: AcMet11-Tau species in Alzheimer's disease brain (human) (UniProt P10636); assay: sandwich ELISA on sarkosyl fractions of AD parietal cortex
[2] = target: AcMet11-Tau (Met11-Tau) protein expressed in cells (human) (UniProt P10636); assay: Western blot of primary neurons infected with lentiviral vectors
[3] = target: AcMet11-Tau (Met11-Tau) protein expressed in cells (human) (UniProt P10636); assay: Western blot of SH-SY5Y cell extracts

binding [1]: binds
binding [2]: binds
binding [3]: binds
B1: 2H2D11 antibody (antibody, IgG2a, V domains shown)
VH: EVRLVESGGGLVQPGGSLRLSCATSGFTFTDYYLSWVRQPPGKAFEWLGFIRNRADGYTTNYSASVKGRFTISRDNSQSILYLQMNTLRVEDSATYYCARDNDHYAMDYWGQGTSVTVSS
VL: DVVMTQTPLSLSVTIGQPASISCKSSQSLLYSNGKTYLNWLQQRPGQAPKHLMYQVSKLDPGIPDRFSGSGSETDFILKISRVEAEDLGIYYCLQGTYYPYTFGGGTKLEIK
notes: also called Mab 2H2D11; monoclonal antibody directed against AcMet11-Tau
